Test results from patent US4880781 (dated 1989).

Assay: general procedure: Boc solid-phase peptide synthesis; p-methylbenzhydrylamine resin; DCC/HOBT; BOP for Boc-His(Tos)
Settings: coupling step

Which step yield does the source give for Boc-His-(Tos)-Sta-Ile-Phe-OCH3 here?
Its step yield is 93%.

With L-Phenyllactyl-His-Sta-Ile-AMP as the substance, how does the step yield read?
Its step yield is 55%.

For “N-tert-Butyloxycarbonyl-L-phenylalanyl-N^α -methyl-N^im -tosyl-L-histidyl-5S-amino-4S-hydroxy-2S-isopropyl-7-methyl-octanoyl-L-iso leucyl-2-pyridylmethylamide”, which step yield is on record?
Its step yield is 64%.

For “N-tert-Butyloxycarbonyl-L-prolyl-L-phenylalanyl-N^α -methyl-N^im -tosyl-L-histidyl-5S-amino-4S-hydroxy-2S-isopropyl-7-methyl-octanoyl-L-iso leucyl-2-pyridylmethylamide”, which step yield is on record?
Its step yield is 69%.

Which step yield does the source give for “N-tert-Butyloxycarbonyl-N^in -tosyl-L-histidyl-5S-amino-2S-isopropyl-7-methyl-4S-tert-butyldimethylsily loxy-octanoyl-L-isoleucyl-2-pyridylmethylamide” here?
Its step yield is 84%.

For “N-tert-Butyloxycarbonyl-Nα-methyl-N^im -tosyl-L-histidyl-5S-amino-2S-isopropyl-7-methyl-4S-tert-butyldimethylsily loxy-octanoyl-L-isoleucyl-2-pyridylmethylamide”, which step yield is on record?
Its step yield is 84%.

With “N-tert-Butyloxycarbonyl-α-methyl-L-prolyl-L-phenylalanyl-N^in -tosyl-L-histidyl-5S-amino-4S-hydroxy-2S-isopropyl-7-methyl-octanoyl-L-iso leucyl-2-pyridylmethylamide” as the substance, how does the step yield read?
The step yield was 82%.

Which step yield does the source give for O-acetyl-L-phenyllactyl-His-Sta-Ile-AMP here?
The step yield was 58%.

Which step yield does the source give for “O-acetyl-L-phenyllactyl-His-Sta-Ile-Phe-OCH3” here?
Its step yield is 73%.

For “O-tert-butylacetyl-L-phenyllactyl-His-Sta-Ile-AMP”, which step yield is on record?
The step yield was 24%.

Same assay, conditions: late stage modification step

Which step yield does the source give for Boc-H[Sta]IF-OMe here?
Its step yield is 89%.

For “N-tert-Butyloxycarbonyl-L-phenylalanyl-N^α -methyl-L-histidyl-5S-amino-4S-hydroxy-2S-isopropyl-7-methyl-octanoyl-L-is oleucyl-2-pyridylmethylamide”, which step yield is on record?
Its step yield is 94%.

Which step yield does the source give for “N-tert-Butyloxycarbonyl-L-prolyl-L-phenylalanyl-N^α -methyl-L-histidyl-5S-amino-4S-hydroxy-2S-isopropyl-7-methyl-octanoyl-L-is oleucyl-2-pyridylmethylamide” here?
The step yield was 90%.

For “N-tert-Butyloxycarbonyl-α-methyl-L-prolyl-L-phenylalanyl-L-histidyl-5 S-amino-4S-hydroxy-2S-isopropyl-7-methyl-octanoyl-L-isoleucyl-2-pyridylmet hylamide”, which step yield is on record?
The step yield was 91%.

Same assay, conditions: late stage modification step, λ 225

Which “final HPLC purity” value does the source give for Boc-PEP-His(Tos)LVA-Ile-AMP here?
Its value is 100%.

Square brackets hold non-standard residues; d marks the D form. * marks the point of attachment. Sta = CC(C)C[C@H](N)[C@@H](O)CC(=O)O; Boc = CC(C)(C)OC(=O)*
